Measured values taken from patent US8017348B1, “Assay for Parkinson's Disease therapeutics” (Elan Pharma International Limited, priority 2005, dated 2011).

Key:
CFTR = experiment: GFPu assay selectivity screen, cells transfected with CFTR; assay type: cell-based; conditions: Hill Slope of CFTR dose response curve
From the text: (§1) The first is the RING finger ligase NRDP1 as a molecule structurally and functionally similar to Parkin. The second is the Cystic Fibrosis Transmembrane Conductance Regulator (CFTR) as a molecule that is a twelve-pass membrane channel protein, and structurally not related to Parkin.
(§2) Dose response curves were generated by exposing cells to compounds at various concentrations. […] “Hill” refers to the Hill Slope.

NRDP1 = experiment: GFPu assay selectivity screen, cells transfected with NRDP1; assay type: cell-based; conditions: Hill Slope of NRDP dose response curve
From the text: as §1, §2

| Structure (SMILES) | CFTR Hill (CFTR) | NRDP Hill (NRDP1) |
| --- | --- | --- |
| O=C(O)CCCc1ccc(N(CCCl)CCCl)cc1 [ELN29018, chlorambucil] | 0.312 | 0.945 |
| O=c1[nH]cc(F)c(=O)[nH]1 [ELN29019, 5-fluoruracil] | 15 | 1.8 |
| Nc1ncn([C@@H]2O[C@H](CO)[C@@H](O)[C@H]2O)c(=O)n1 [ELN476201, 5-azacytidine] | – | 1.1 |
| O=C(N[C@@H](Cc1ccccc1)C(=O)CCl)OCc1ccccc1 [ELN476309, ZPCK] | 1.53 | 1.23 |
| O=C1c2c(O)ccc(O)c2C(=O)c2c(NCCNCCO)ccc(NCCNCCO)c21 [ELN476491, mitoxantrone] | 8.178 | 9.5 |
| Cc1ccc(S(=O)(=O)N[C@@H](Cc2ccccc2)C(=O)CCl)cc1 [ELN477056, TPCK] | – | 2.62 |
